This is an account of results in article PMC10919088.

This assay concerns the target heat-labile enterotoxin B-subunit (LTB) of porcine ETEC (pLT), produced in Vmax (Escherichia coli (ETEC, porcine origin)) (UniProt P32890). The assay is described as follows: SEC.

Results are given in words; binding and its absence hold for the method and conditions named. Some results given as binding are weak or reduced against the parent protein; the word gives no strength.

In the case of “heat-labile enterotoxin B-subunit (LTB) of porcine ETEC (pLT), produced in Vmax (from UniProt P32890 22-124)”, the binding entry was “binds”.
In the case of “heat-labile enterotoxin catalytic A-subunit (LTA) of porcine ETEC (pLT), produced in Vmax (from UniProt P06717 19-258)” it was “binds”.
